Changes are numbered by the printed parent chain. No constants are given. Whether binding was seen depends on the method and setting. Binding seen in cells or lysates may run through a third protein. Some binding calls cover weakened binding; strength is not graded here. Tags and fused reporters may be left off the sequences shown. Each block holds one binder with its values, some of them ahead of it.
Experiments:
Test in all cases: pull-down; MBP-Isc10 forms coexpressed with Smk1, Ssp2^KAD-GST and Cak1 in E. coli BL-21 DE3; soluble extract bound to amylose beads at 4 °C, washed with lysis buffer (25 mM Tris-Cl pH 7.4, 5 mM MgCl2, 300 mM NaCl, 1 mM DTT, 0.5% NP-40); bound Smk1 and Ssp2 (GST) detected by immunoblot
[1] = molecular target: T1, MBP-Isc10^111-267 (S. cerevisiae) (UniProt P32645)
T1 sequence: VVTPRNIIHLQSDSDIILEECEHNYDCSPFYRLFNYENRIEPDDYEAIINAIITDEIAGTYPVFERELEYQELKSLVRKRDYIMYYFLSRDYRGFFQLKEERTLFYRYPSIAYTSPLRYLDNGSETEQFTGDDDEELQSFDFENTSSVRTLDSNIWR

[2] = molecular target: T2, MBP-Isc10^1-203 (S. cerevisiae) (UniProt P32645)
T2 sequence: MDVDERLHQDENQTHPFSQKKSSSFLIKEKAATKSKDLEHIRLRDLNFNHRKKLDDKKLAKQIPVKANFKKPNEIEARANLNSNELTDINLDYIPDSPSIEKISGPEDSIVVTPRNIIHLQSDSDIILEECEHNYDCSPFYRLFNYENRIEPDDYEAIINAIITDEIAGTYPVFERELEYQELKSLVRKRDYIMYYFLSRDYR

[3] = molecular target: T3, MBP-Isc10^111-203 (S. cerevisiae) (UniProt P32645)
T3 sequence: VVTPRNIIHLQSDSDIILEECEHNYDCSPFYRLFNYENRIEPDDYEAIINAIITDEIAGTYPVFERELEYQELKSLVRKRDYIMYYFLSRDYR

[4] = molecular target: T4, MBP-Isc10^146-203 (S. cerevisiae) (UniProt P32645)
T4 sequence: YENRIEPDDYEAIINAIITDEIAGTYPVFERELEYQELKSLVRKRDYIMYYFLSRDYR

[5] = molecular target: T5, MBP-Isc10^1-140 (S. cerevisiae) (UniProt P32645)
T5 sequence: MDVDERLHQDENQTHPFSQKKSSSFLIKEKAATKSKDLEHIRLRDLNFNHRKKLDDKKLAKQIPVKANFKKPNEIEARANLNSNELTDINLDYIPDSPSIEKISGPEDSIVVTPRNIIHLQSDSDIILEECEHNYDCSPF

[6] = molecular target: T6, MBP-Isc10 (full-length Isc10, 1-267) (S. cerevisiae) (UniProt P32645)
T6 sequence: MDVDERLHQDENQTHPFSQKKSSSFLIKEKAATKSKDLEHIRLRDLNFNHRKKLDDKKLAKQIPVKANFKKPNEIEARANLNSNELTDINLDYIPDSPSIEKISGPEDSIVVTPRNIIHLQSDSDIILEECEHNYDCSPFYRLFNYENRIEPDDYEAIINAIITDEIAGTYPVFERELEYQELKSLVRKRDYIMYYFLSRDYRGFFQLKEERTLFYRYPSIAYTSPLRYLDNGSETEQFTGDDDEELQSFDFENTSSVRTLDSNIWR

[7] = molecular target: T7, MBP-Isc10-S97D (S. cerevisiae) (UniProt P32645)
T7 sequence: T6 sequence with S97D

binding [1]: binds | binding [2]: binds | binding [3]: binds | binding [4]: binds | binding [5]: no binding | binding [6]: binds | binding [7]: binds
B1: Ssp2^KAD-GST (Ssp2 residues 137-371 fused to glutathione-S-transferase) (domain or fragment, UniProt Q08646 137-371)
chain: KGKVYSEESEVVDEKTAGSQNPALLKTRSISLNDIPRGTGISSVLSQVRGGSLERIIVYRYDTPERSLHKVDLFFLNYEGAQSFMRYAKTNIFKVNGVQLKPEWIFLESTYENIMKEQSVNRIIEEEKFISRCLIVKKSSTTAMPNKSNLNKGQTLENIDIQELEKDFQNFGEVLEITPIVSRKLCVSIFFYDISSAMRAMEEYEQKGSYLYNKYFKTWTIWYGKDITDQPCIDL

binding [1]: binds | binding [2]: binds | binding [3]: binds | binding [4]: binds | binding [5]: no binding | binding [6]: binds | binding [7]: binds
B2: Smk1 (enzyme, UniProt P41808 1-388)
chain: MNCTLTDNTRAINVASNLGAPQQRTIFAKERISIPGYYEIIQFLGKGAYGTVCSVKFKGRSPAARIAVKKISNIFNKEILLKRAIRELKFMNFFKGHKNIVNLIDLEIVTSSPYDGLYCYQELIDYDLAKVIHSSVQLSEFHIKYFLYQILCGLKYIHSADVIHRDLKPGNILCTLNGCLKICDFGLARGIHAGFFKCHSTVQPHITNYVATRWYRAPELLLSNQPYSKSVDIWAVGCILAEFYARKPVFMGRDSMHQIFEIIKVLGTPDKDILIKFGTIKAWNLGKNSNNPVYKKIPWSNIFPFASHEAINLIESLLHWDSTHRLNVEQAISHPFLNEVRKPDDEPVCLQGPFDFTYESELNSMSKLRDYLVEEVKNFKTDLSSSSL

— paper PMC9558048
